Results published in US20020127227A1 (GlaxoSmithKline, published 2002).
Results are given in words; binding and its absence hold for the method and conditions named. Some results given as binding are weak or reduced against the parent protein; the word gives no strength. Tags and fused reporters may be left off the sequences shown.

Columns and labels:
[1] = target: T1, GST-RHAMM (glutathione-S-transferase fused to the amino terminus of human RHAMM via a linker containing a thrombin cleavage site) (human) (UniProt O75330); assay: plate immunoassay, coated antigen, biotinylated anti-mouse antibody and Eu3+ streptavidin fluorescence
T1 sequence (looked up): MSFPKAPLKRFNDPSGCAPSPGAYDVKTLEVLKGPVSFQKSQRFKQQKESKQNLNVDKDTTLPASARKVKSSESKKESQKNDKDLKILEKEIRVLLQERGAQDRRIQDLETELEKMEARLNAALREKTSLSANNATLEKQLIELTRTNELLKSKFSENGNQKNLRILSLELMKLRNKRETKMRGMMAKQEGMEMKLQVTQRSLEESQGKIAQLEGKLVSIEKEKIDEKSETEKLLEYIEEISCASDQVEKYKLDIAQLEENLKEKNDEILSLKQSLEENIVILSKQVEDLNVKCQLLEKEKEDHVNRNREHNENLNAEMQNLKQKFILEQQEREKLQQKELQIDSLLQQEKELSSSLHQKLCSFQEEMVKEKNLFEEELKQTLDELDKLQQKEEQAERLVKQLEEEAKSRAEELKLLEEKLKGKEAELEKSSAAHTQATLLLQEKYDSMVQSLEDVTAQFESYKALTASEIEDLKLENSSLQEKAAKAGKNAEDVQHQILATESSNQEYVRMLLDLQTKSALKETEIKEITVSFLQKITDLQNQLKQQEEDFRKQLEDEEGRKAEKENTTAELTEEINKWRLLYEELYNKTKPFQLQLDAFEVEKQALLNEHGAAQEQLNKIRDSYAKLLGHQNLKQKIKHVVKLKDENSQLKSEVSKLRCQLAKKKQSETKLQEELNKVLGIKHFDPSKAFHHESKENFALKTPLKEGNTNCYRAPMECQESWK

[2] = target: T2, recombinant human RHAMM (receptor for hyaluronic acid mediated motility), GST tag removed (human) (UniProt O75330); assay: BIAcore SPR, mAb captured on rabbit anti-mouse IgG Fc, RHAMM injected
T2 sequence (looked up): T1 sequence (looked up)

B1: murine monoclonal antibody 16E10 (antibody, V domains shown)
VH: QVQLKESGPGLVAPSQSLSITCTVSGFSLTGYGVNWVRQPPGKGLEWLGMIWVDGGTDYNSALKSRLSISKDNSKSQVFLKMNSLQTDDTARYYCARGGSSLLGFAYWGQGTLVTVSA
VL: DIQMTQTTSSLSASLGDRVTISCRASQDISNYLNWYQQKPDGTVKLLIYYTSRLHSGVPSRFSGSGSGTDYSLTISNLEQEDIATYFCQQGNTLPRTFGGGTKLEIKR
modifications: N-terminus of the heavy chain blocked with pyroglutamic acid
notes: The rest is mouse IgG with a kappa light chain (amplified with mouse IgG CH1 and C kappa primers); also called mAb 16E10; ATCC 16E10
B1 was tested, and the binding [1] was “binds” and the binding [2] was “binds”.
